Assay results from PubChem BioAssay AID1745853 (National Center for Advancing Translational Sciences (NCATS), 2022).
Some of the results follow. Some salts and complexes are drawn in separate pieces, as the source files them; their charges need not balance.

Amino acid sequences for entries named in this document (tags omitted).
UniProt Q14749, whole entry: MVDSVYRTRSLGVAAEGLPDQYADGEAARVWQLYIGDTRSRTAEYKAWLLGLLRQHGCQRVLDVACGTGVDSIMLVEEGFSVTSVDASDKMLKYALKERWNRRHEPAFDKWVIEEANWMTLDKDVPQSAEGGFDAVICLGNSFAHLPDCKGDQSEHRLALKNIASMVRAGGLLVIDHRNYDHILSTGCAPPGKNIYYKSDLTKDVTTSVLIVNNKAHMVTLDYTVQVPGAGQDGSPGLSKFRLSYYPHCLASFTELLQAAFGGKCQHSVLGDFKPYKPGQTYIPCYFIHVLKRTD
UniProt P50135, whole entry: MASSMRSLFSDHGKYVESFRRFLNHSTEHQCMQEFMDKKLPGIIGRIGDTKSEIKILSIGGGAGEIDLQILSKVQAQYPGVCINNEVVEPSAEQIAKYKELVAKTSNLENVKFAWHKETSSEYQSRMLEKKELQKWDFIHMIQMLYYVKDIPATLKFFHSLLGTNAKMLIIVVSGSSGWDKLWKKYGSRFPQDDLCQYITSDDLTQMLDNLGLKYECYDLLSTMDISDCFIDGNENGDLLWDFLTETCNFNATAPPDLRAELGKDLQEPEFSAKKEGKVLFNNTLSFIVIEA
UniProt P40261, whole entry: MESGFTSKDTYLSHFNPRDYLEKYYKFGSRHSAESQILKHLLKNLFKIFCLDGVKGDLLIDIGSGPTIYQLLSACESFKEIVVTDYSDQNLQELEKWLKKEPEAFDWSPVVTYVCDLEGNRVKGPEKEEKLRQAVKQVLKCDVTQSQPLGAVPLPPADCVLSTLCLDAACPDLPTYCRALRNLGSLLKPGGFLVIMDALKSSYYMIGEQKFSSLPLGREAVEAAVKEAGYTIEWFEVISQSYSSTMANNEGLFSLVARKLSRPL
UniProt P11086, whole entry: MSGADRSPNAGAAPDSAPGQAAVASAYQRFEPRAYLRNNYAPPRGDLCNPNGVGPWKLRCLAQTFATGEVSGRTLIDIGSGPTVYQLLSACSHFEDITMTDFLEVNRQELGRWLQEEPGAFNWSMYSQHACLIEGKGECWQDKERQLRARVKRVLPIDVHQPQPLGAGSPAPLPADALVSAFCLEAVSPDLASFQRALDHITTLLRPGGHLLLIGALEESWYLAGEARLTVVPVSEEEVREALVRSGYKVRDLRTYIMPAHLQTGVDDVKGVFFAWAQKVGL

Key:
Assay in all cases: Primary Screen for Target Class Profiling of Small Molecule Inhibitors of Methyltransferases
[1] = biological target: Glycine N-methyltransferase (Homo sapiens) (UniProt Q14749); conditions: purified enzyme, MTase-Glo SAH luminescence; measured here: GNMT inhibition; at 40 µM; stronger effect = lower value
Text: (§1) PI: Matthew D. Hall Ph.D. and Quinlin M. Hanson Ph.D.
(§2) National Center for Advancing Translational Sciences (NCATS)
(§3) National Institute of Health (NIH), Rockville, MD
(§4) Target class profiling (TCP) is a chemical biology approach amenable to investigating understudied biological targets. TCP is achieved by developing a generalizable assay platform and applying it to screen a curated set of compound libraries against representative members of a target class. Small molecule methyltransferases (SMMTase) are a subclass of methyltransferase that act on metabolites to modulate signaling pathways, metabolize xenobiotics, or balance the available methyl pool. We screened four curated libraries totaling 27,574 unique compounds against the SMMTases nicotinamide N-methyltransferase (NNMT), phenylethanolamine N-methyltransferase (PNMT), histamine N-methyltransferase (HNMT), glycine N-methyltransferase (GNMT), catechol O-methyltransferase (COMT), and guanidinoacetate N-methyltransferase (GAMT). The data generated by this TCP can be leveraged for informed tool molecule development. For example, in the associated publication we identified a chemotype of HNMT-selective inhibitors. Additionally, we identified a putative SMMTase-selective inhibitor with potential as a tool molecule for studying broader methyltransferase biology.
(§5) High-through put screening assays were developed at the National Center for Advancing Translational Science (NCATS) for the enzymes NNMT, PNMT, HNMT, GNMT, COMT, and GAMT. Enzymatic activity was measured as a function of SAM cofactor conversion using the MTase Glo kit (Promega) for all enzymes. All assays were performed in 1536-well format with substrates and SAM concentrations at KM values. Enzyme concentration and assay timing were optimized for 10-20% SAM conversion. Initial screening of 27,574 compounds was done as single-point assays using the highest compound concentration (40 uM). […] These compounds were replated in 11-point dose response and assayed against NNMT, PNMT, HNMT, GNMT, COMT, GAMT, and a counter-assay. The IC50 and efficacy (maximal response) values were determined for each dose-response curve. These values are also accounted for in the area under the curve (AUC) values.
(§6) PROTOCOL TABLE (as described by Inglese J, Shamu CE and Guy RK. 2007)
(§7) SEQUENCE No. (e.g., 1, 2, 3, etc.); […] (e.g., Cells, Incubation, Reagent, etc.); VALUE; DESCRIPTION.
(§8) 1; Reagent; 2 uL; SMMTase Enzyme (2x) in reaction buffer, columns 1- 48.
(§9) 2; Reagent; 1 uL; SAM (4x) in reaction buffer, columns 1-48.
(§10) 3; Controls; 23 nL; DMSO in column 4; sinefungin in DMSO (0 uM - 40 uM) in 7-point 1:2 dilution series (n = 2) in column 2.
(§11) 4; Compounds; 23 nL; Columns 5-48.
(§12) 5; Reagent; 1 uL; Substrate (4x) in reaction buffer, columns 2-48.
(§13) 6; Time; 20-30 min; Incubation.
(§14) 7; Reagent; 1 uL; MTase-Glo reagent (5X), columns 1-48.
(§15) 8; Time; 30 min; Incubation.
(§16) 9; Reagent; 5 uL; MTase-Glo Detection reagent, columns 1-48.
(§17) 10; Time; 30 min; Incubation, luminescence evolution.
(§18) 11; Detection; Luminescence; ViewLux uHTS Microplate Imager (PerkinElmer).
(§19) NOTES (numbers refer to Sequence numbers above)
(§20) 1, 2, 5. White Medium Binding Greiner 1536-well plates (Cat #789175-F, Greiner Bio-One, Monroe, NC); Reaction buffer: 50 mM Tris, pH 8.0, 3 mM MgCl2, 1 mM EDTA, 50 mM NaCl, 1 mM DTT, and 0.1 mg/mL BSA. Evaporation was prevented by covering assay plates with metal lids containing holes to allow gas diffusion.
(§21) 1. Six SMMTase were profiled: HNMT, GNMT, PNMT, COMT, NNMT, GAMT
(§22) 5. The corresponding substrate was used for each enzyme: HNMT - 5.3 uM Histamine; GNMT - >500 uM Glycine; PNMT - 16.2 uM Norephinephrine; COMT - 13.7 uM Norephinephrine; NNMT - 3.8 uM Nicotinamide; GAMT - 2.5 uM Guanidinoacetate.6, 8, 10. Room temperature
(§23) 6. Final reaction conditions: 10 nM COMT, 5 uM SAM, 15 uM norepinephrine, 50 mM Tris, pH 8.0, 3 mM MgCl2, 1 mM EDTA, 50 mM NaCl, 1 mM DTT, and 0.1 mg/mL BSA; refer to tables 2 and S1 for specific timing.
8. […]

[2] = biological target: Guanidinoacetate N-methyltransferase (Homo sapiens) (UniProt Q14353); conditions: purified enzyme, MTase-Glo SAH luminescence; measured here: GAMT inhibition; at 40 µM; stronger effect = lower value
Text: as §1, §2, §3, §4, §5, §6, §7, §8, §9, §10, §11, §12, §13, §14, §15, §16, §17, §18, §19, §20, §21, §22, §23
8. […]

[3] = biological target: Histamine N-methyltransferase (Homo sapiens) (UniProt P50135); conditions: purified enzyme, MTase-Glo SAH luminescence; measured here: HNMT inhibition; at 40 µM; stronger effect = lower value
Text: as §1, §2, §3, §4, §5, §6, §7, §8, §9, §10, §11, §12, §13, §14, §15, §16, §17, §18, §19, §20, §21, §22, §23
8. […]

[4] = biological target: Nicotinamide N-methyltransferase (Homo sapiens) (UniProt P40261); conditions: purified enzyme, MTase-Glo SAH luminescence; measured here: NNMT inhibition; at 40 µM; stronger effect = lower value
Text: as §1, §2, §3, §4, §5, §6, §7, §8, §9, §10, §11, §12, §13, §14, §15, §16, §17, §18, §19, §20, §21, §22, §23
8. […]

[5] = biological target: Phenylethanolamine N-methyltransferase (Homo sapiens) (UniProt P11086); conditions: purified enzyme, MTase-Glo SAH luminescence; measured here: PNMT inhibition; at 40 µM; stronger effect = lower value
Text: as §1, §2, §3, §4, §5, §6, §7, §8, §9, §10, §11, §12, §13, §14, §15, §16, §17, §18, §19, §20, §21, §22, §23
8. […]
% is set by controls: 0 for no effect and ±100 for the full control effect.

Row | SMILES | activity change, negative = inhibition [1] | activity change, negative = inhibition [2] | activity change, negative = inhibition [3] | activity change, negative = inhibition [4] | activity change, negative = inhibition [5]
1 | C/C1=C2N=C(/C=C3N=C(/C(C)=C4\N=C(C(CC(N)=O)C4(C)CCC(=O)NCC(C)OP(=O)([O-])OC4C(CO)OC(n5cnc6cc(C)c(C)cc65)C4O)C4(C)N=C1C(CCC(N)=O)C4(C)CC(N)=O)C(CCC(N)=O)C\3(C)C)C(CCC(N)=O)C/2(C)CC(N)=O.[C-]#N.[Co] (centres undefined) | -86.4% | -28.5% | -30.2% | -33.8% | -24.7%
2 | CN(C(=O)Cc1ccccc1)[C@@H]1CC[C@]2(CCCO2)C[C@H]1N1CCCC1 | 4.28% | 13.3% | 13.7% | -5.73% | -1.28%
3 | CCn1c(=O)n([C@@H]2CCN(CC3CCCCCCC3)C[C@H]2CO)c2ccccc21 | -4.43% | 3.82% | 5.78% | -18.1% | -3.24%
4 | CN(C(=O)Cc1ccc(Cl)c(Cl)c1)[C@@H]1CC[C@]2(CCCO2)C[C@H]1N1CCCC1 | 1.57% | 12.3% | -0.23% | -7.26% | 7.79%
5 | CCOP(=O)(CC)Oc1ccc([N+](=O)[O-])cc1 (centres undefined) | -3.92% | 0.457% | 6.08% | -10.6% | -2.16%
6 | CN(C)C1(c2ccccc2)CCC2(CC1)OCCc1c2[nH]c2ccc(F)cc12 (centres undefined) | 2.72% | 0.552% | -8.59% | -11.8% | -2.52%
7 | N[C@@H](Cc1ccc([N+]([O-])(CCCl)CCCl)cc1)C(=O)O | 1.33% |  | 7.4% | -29.4% | -15.9%
8 | O=C(O[C@H]1CN2CCC1CC2)C1NCc2ccccc2[C@@H]1c1ccccc1 (some centres undefined) | -5.32% | -11.3% | -12.7% | -19.1% | -11.2%
